Experimental data from PubChem BioAssay AID2685 (National Center for Advancing Translational Sciences (NCATS), 2010).
This is one part of the list. The main result of the screen is listed elsewhere. These columns were measured beside it and carry no call. The list favours compounds with an active or inconclusive main result. Potencies come from curve fits of mixed quality, noted in brackets.

Assay: qHTS Assay for Lipid Storage Modulators in Drosophila S3 Cells;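 for cell number change: cells counted by Cell Tracker Red CMTPX staining in the red channel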
Conditions: BODIPY lipid droplet fluorescence, 18-24 h; for cell number change: measured here: cell count max response, cells fed with added oleic acid
Outline: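 Laser-scanning cytometry quantifies lipid droplet accumulation (500–530 nm total intensity; droplet/cell object ratio) in oleic acid-fed (400 uM added) Drosophila S3 cells treated with a concentration series. 20 uM Triacsin C defined 100% inhibition.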

[1] = measured here: cell number channel AC50, cells fed with added oleic acid
[2] = measured here: lipid fluorescence (Fed channel) AC50, cells fed with added oleic acid

SMILES | cell number change | AC50 [1] | AC50 [2]
CCc1ccc(CNC(=O)c2cc3c(C)nc4ccccc4c3o2)cc1 | 4.36% | 0.731 µM [rising, partial curve] | 0.92 µM [rising, partial curve]
N=c1sccn1CC(=O)Nc1cc(Cl)ccc1[N+](=O)[O-] | 44.8% | 20.6 µM [rising, single point] | 2.31 µM [rising, single point]
O=C1NCN(c2ccccc2)C12CCN(c1nnnn1-c1ccccc1)CC2 | 190% | 14.6 µM [rising, partial curve] | 4.61 µM [rising, partial curve]
CC1=C(c2ccccc2)[N+](=O)C2(CCCC2)N1[O-] | -6.5% | – | 0.164 µM [falling, full curve, poor fit]
COc1ccc(C2CC(c3ccccc3)=NN2C(=O)COC(=O)CNC(=O)c2ccccc2)cc1 (centres undefined) | – | – | 20.6 µM [falling, single point]
Cc1cccc(N=C2NN=C(c3c(C)[nH]c4ccccc34)CS2)c1 | -14.9% | – | 16.4 µM [falling, single point]
Cn1c(N)c(S(=O)(=O)N2CCN(c3ccccc3F)CC2)c(=O)n(C)c1=O | 5.43% | – | 5.62 µM [falling, single point]
O=C(CCN1C(=O)c2ccccc2C1=O)C1=NN[C@@H]2C(=O)N(c3cccc(Cl)c3)C(=O)[C@H]12 | – | 0.651 µM [falling, partial curve, poor fit] | 0.58 µM [falling, partial curve, poor fit]
Cc1ccc(S(=O)(=O)N2CCN(c3cccc(C)c3)CC2)cc1 | -9.62% | – | 18.4 µM [falling, single point]
Cc1c(CC(=O)NCCCCCC(=O)O)c(=O)oc2c(C)c3oc4c(c3cc12)CCCC4 | 52.3% | 0.164 µM [rising, full curve, poor fit] | –
COc1cc(C(=O)OC(C)C(=O)Nc2ccc3c(c2)OCO3)ccc1OCc1c(C)noc1C (centres undefined) | -14.8% | – | 1.46 µM [falling, partial curve]
COc1ccc(CNC(=O)c2cc(-c3cc(C)ccc3O)n[nH]2)cc1 | 25.7% | – | 0.146 µM [rising, full curve, poor fit]
COc1ccc(/C=N/n2cnnc2SCc2ccccc2)cc1 | -20.8% | – | –
O=C(NCCOc1ccccc1F)C1CCC(=O)N(CCc2cccc(F)c2)C1 (centres undefined) | 23.8% | – | 0.58 µM [falling, single point]
COc1ccccc1CNC(=O)c1ccc(CS(=O)(=O)c2ccccc2OC)o1 | -13.9% | – | 4.11 µM [rising, single point]
C=CCOCCN(C)C1=NS(=O)(=O)c2cc([N+](=O)[O-])ccc21 | -24.5% | 0.411 µM [falling, full curve, poor fit] | 18.4 µM [falling, partial curve, poor fit]
CCOc1ccccc1-n1nnnc1SCC(=O)NCc1ccco1 | -30.7% | 13 µM [falling, partial curve, poor fit] | 5.8 µM [falling, full curve]
COc1ccccc1NC(=O)C(=N\O)/C(C)=N/O | -8.46% | – | 6.51 µM [falling, single point]
CSc1nc(-c2ccco2)nn1C(=O)c1ccc(Cl)cc1 | -9.86% | – | 29.1 µM [rising, single point]

SMILES | cell number change | AC50 [1] | AC50 [2]
CC[C@@H](C)C(N)c1cn([C@@H](CCC(=O)O)C(=O)N2CCNCC2)nn1 (some centres undefined) | 2.44% | – | 0.731 µM [rising, single point]
Cc1cc(NS(=O)(=O)c2ccc(NC(=O)COc3ccc(Cl)c(C)c3)cc2)no1 | 19.8% | – | 6.51 µM [rising, partial curve, poor fit]
COCc1c(C#N)c(NCCc2ccc(F)cc2)nc(C)c1[N+](=O)[O-] | – | 6.51 µM [rising, single point] | 13 µM [falling, partial curve]
Cc1ccc(O)c(NC(=O)c2cc([N+](=O)[O-])ccc2Cl)c1 | -38.5% | 29.1 µM [falling, single point] | 29.1 µM [falling, single point]
COc1ccc(NS(=O)(=O)c2cc(NC(=O)c3ccc(C)o3)ccc2N2CCCCC2)cc1 | -32.7% | 29.1 µM [falling, single point] | 29.1 µM [falling, single point]
O=C(Nc1ccccc1)Nc1ccc(NC(=O)c2ccccc2O)cc1 | 0.709% | – | –
O=C(Nc1ccc(O)c(C(=O)O)c1)c1cccc(NC(=O)c2ccco2)c1 | 30.4% | 32.6 µM [rising, partial curve, poor fit] | 29.1 µM [rising, partial curve, poor fit]
CC(C)CN1C(=O)C(=O)N(CC(=O)Nc2cccc(Cl)c2Cl)C1=O | 7.64% | – | 6.51 µM [rising, partial curve]
CC1Sc2ccc(C(=O)Nc3ncccc3O)cc2NC1=O (centres undefined) | 16.1% | – | –
Cc1ccc(S(=O)(=O)N2CCCN(C(C)c3nc4ccccc4c(=O)[nH]3)CC2)cc1 (centres undefined) | 0.352% | – | –
Cc1ccc(NC(=O)COC(=O)CC2SC(N3CCCC3)=NC2=O)cc1 (centres undefined) | 0.937% | – | 9.2 µM [falling, partial curve, poor fit]
COc1cc(=O)[nH]c(SCC(=O)Nc2nc3c(s2)CCCC3)n1 | 18.7% | – | 0.58 µM [falling, single point]
Cc1nnc(SCC(=O)N(C)CC(=O)Nc2ccccc2Cl)s1 | -68% | 29.1 µM [falling, single point] | –
Cc1sc2nc(SCC(=O)OC(C)C)n(C)c(=O)c2c1C | -4.75% | – | –
COCCN(Cc1cn(C)nc1-c1ccc(Oc2ccccc2)cc1)C(C)C | 12.1% | – | 6.51 µM [rising, full curve]
CCOc1ccccc1C(=O)NCC(=O)NC(C)c1ccc(-n2ccnc2)cc1 (centres undefined) | – | 3.66 µM [rising, single point] | 2.91 µM [rising, partial curve, poor fit]
CN(C1CCCCC1)S(=O)(=O)c1ccc2c(c1)CCC(=O)N2 | 20.9% | – | –
N#Cc1ccc(NC(=O)CNc2cc(S(=O)(=O)N3CCOCC3)ccc2NCC2CCCO2)cc1 (centres undefined) | – | 6.51 µM [rising, single point] | 6.51 µM [rising, single point]
O=C(Nc1nc(-c2cc(F)ccc2F)cs1)C1=NN(c2ccccc2)C(=O)CC1 | – | – | 0.58 µM [falling, single point]

Of the compounds above, three contain two or more sulfur atoms.
SMILES | cell number change | AC50 [1] | AC50 [2]
COc1cc(=O)[nH]c(SCC(=O)Nc2nc3c(s2)CCCC3)n1 | 18.7% | – | 0.58 µM [falling, single point]
Cc1nnc(SCC(=O)N(C)CC(=O)Nc2ccccc2Cl)s1 | -68% | 29.1 µM [falling, single point] | –
Cc1sc2nc(SCC(=O)OC(C)C)n(C)c(=O)c2c1C | -4.75% | – | –

(further entries)

SMILES | cell number change | AC50 [1] | AC50 [2]
COc1cccc(NC(=O)CNC(=O)c2ccc(C)o2)c1 | 1.57% | – | 0.116 µM [rising, full curve, poor fit]
COc1ccc(C(=O)CSc2nc3[nH]ncc3c(=O)[nH]2)cc1 | -35% | – | 29.1 µM [falling, single point]
CN(Cc1ccccc1)C(=O)CSc1nc2ccccc2c(=O)n1Cc1ccco1 | -15.1% | – | 0.146 µM [rising, full curve, poor fit]
Nc1c(Cl)cc(-c2[nH]c3cc(C(=O)NCCO)ccc3c(=O)c2O)cc1Cl | 24.6% | 7.31 µM [rising, partial curve, poor fit] | –
O=[N+]([O-])c1cccc(/C=N/n2c(C3CCCCC3)n[nH]c2=S)c1 | -51.8% | 23.1 µM [falling, partial curve] | 23.1 µM [falling, single point]
CC(=O)NN1C(=O)/C(=C/c2ccc(Br)o2)SC1=S | 357% | 18.4 µM [rising, partial curve] | 20.6 µM [falling, single point]
CN(C)c1cccc(C(=O)NCCCSc2ccccc2)c1 | 15.1% | – | 0.112 µM [rising, full curve, poor fit]
CCN(CC(=O)Nc1ccccc1C(F)(F)F)C(=O)c1cc(-c2ccccc2)nn1-c1ccccc1 | 84.5% | 20.6 µM [rising, single point] | –
Cn1c(CCCOc2ccc(Cl)cc2Cl)nnc1SCC(=O)Nc1cccc(F)c1 | -26.9% | – | 16.4 µM [falling, partial curve]
COCC(=O)Nc1ccc([N+](=O)[O-])cc1C | – | – | 29.1 µM [rising, single point]
CC1=Nn2c(nc3sc4c(c3c2=O)CCCC4)SC1 | -17.3% | – | –
COc1ccc(-c2nnc(SCC(=O)c3ccc(O)cc3O)o2)cc1 | -2.5% | – | –
CC(C)(C)C(=O)Nc1ccc(S(=O)(=O)N2CCCC2)cc1 | -8.14% | – | 29.1 µM [falling, single point]
COCCOC(=O)C1=C(C)NC(=S)NC1/C=C/c1ccccc1 (centres undefined) | 76.8% | 29.1 µM [rising, single point] | 29.1 µM [rising, single point]
O=C1c2ccccc2C(=O)N1CCn1c(=O)oc2ccccc21 | 76.5% | 0.259 µM [rising, full curve] | 0.116 µM [rising, full curve, poor fit]
O=C(NCCc1ccccc1)c1nc2ncccn2n1 | – | 6.51 µM [falling, single point] | 6.51 µM [rising, single point]
CN1CCN(C(=S)SCc2nc(N)nc(Nc3ccc(F)cc3)n2)CC1 | 2.02% | – | 9.2 µM [falling, single point]
CN(C)c1ccc(NC(=S)c2ccccn2)cc1 | -50.5% | 29.1 µM [falling, single point] | 18.4 µM [falling, partial curve, poor fit]

One compound at a time (already shown). Values in the order: cell number change | AC50 [1] | AC50 [2]
CCOc1ccccc1C(=O)NCC(=O)NC(C)c1ccc(-n2ccnc2)cc1 (centres undefined) is entered as – | 3.66 µM [rising, single point] | 2.91 µM [rising, partial curve, poor fit]
Cn1c(N)c(S(=O)(=O)N2CCN(c3ccccc3F)CC2)c(=O)n(C)c1=O is entered as 5.43% | – | 5.62 µM [falling, single point]
